From paper PMC7862772
No constants are given. Whether binding was seen depends on the method and setting. In cells and extracts the contact can be indirect. These calls come from enrichment with a bait or labelling near it, and not all partners need be listed.

What was measured:
[1] = target: Eimeria tenella calcium-dependent protein kinase 4 (EtCDPK4), endogenous (Eimeria tenella (endogenous in sporulated oocysts)); assay: affinity purification with mass spectrometry; 50 ug rabbit anti-rEtCDPK4 IgG on A/G resin (Pierce Co-Immunoprecipitation Kit), 50 ug whole proteins of sporulated oocysts (RIPA lysate), 4°C overnight; eluate by SDS-PAGE, silver stain, whole lane to shotgun mass spectrometry; negative control resin / pre-immune rabbit IgG
[2] = target: recombinant E. tenella CDPK4, His-tagged (His-rEtCDPK4) (Eimeria tenella); assay: affinity purification with mass spectrometry; His pull-down (Pierce His Protein Interaction Pull-Down Kit): 150 ug His-rEtCDPK4 and 450 ug proteins of sporulated oocysts on the resin overnight, 4°C; Hexa His as negative control; eluate to shotgun mass spectrometry; only the target purified

B1: Eimeria tenella translation initiation factor eIF-5A (EteIF-5A), endogenous (protein, UniProt U6KT65 1-161)
chain: MSDAEEVSFERADAGASLTYPQQAGAIKKNGFCMLKGNPCKVVDYSTSKTGKHGHAKAHIVGLDIFTGKKYEDICPTSHNMEVPNVKRSEFQLIDVSDDGFVSLLLDNGDLKSDLTLPKDSDGNLDEVALQVKSLFQEGKGVLVSVLAACGKEKIVACKEL
binding [1]: binds
binding [2]: binds
